Data reported in publication PMC5940772 (Nature Communications, 2018).
These are yes or no findings as the source states them, for the method shown. Some entries that bind do so weakly or less than the wild type.

Sequences of proteins named here, by UniProt entry; tags and fusion partners are left off. A change or cut given only in a name is not applied to a line headed by its entry. A line that says so, or that is headed by a name, gives the form on record, which may keep a tag or linker. Residues count along the entry.
UniProt Q14258: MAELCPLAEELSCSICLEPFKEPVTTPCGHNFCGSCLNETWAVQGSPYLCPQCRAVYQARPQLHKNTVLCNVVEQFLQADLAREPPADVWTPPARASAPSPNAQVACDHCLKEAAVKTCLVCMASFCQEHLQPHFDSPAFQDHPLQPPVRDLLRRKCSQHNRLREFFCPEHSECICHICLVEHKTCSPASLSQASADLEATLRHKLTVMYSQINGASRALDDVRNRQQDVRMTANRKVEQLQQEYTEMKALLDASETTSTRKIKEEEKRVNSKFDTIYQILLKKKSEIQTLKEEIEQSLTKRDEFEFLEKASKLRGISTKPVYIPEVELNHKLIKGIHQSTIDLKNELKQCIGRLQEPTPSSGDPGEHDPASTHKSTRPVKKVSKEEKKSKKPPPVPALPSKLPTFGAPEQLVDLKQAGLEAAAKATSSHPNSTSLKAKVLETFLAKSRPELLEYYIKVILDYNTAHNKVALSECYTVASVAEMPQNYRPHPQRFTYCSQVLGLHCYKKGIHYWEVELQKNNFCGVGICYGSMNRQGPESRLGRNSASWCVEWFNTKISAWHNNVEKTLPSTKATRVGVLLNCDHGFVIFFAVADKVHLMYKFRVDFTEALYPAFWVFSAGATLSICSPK
TRIM25-CC (coiled-coil domain of TRIM25, 189-379), tag removed: residues 189-379 of Q14258
UniProt P03496, residues 79-230: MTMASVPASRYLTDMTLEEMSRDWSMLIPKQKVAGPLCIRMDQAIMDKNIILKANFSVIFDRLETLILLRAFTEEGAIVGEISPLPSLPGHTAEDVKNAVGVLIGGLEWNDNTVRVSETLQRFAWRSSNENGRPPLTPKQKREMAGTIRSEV

Assays:
[1] = molecular target: Human TRIM25 CC-PRYSPRY domain (residues 189-630) (human) (UniProt Q14258); experiment: crystal structure; both purified
[2] = molecular target: TRIM25-CC (coiled-coil domain of TRIM25, 189-379), tag removed (human) (UniProt Q14258); experiment: crystal structure; both purified

Substance	binding [1]	binding [2]
Human TRIM25 CC-PRYSPRY domain (residues 189-630) (from UniProt Q14258 189-630) (domain or fragment)	binds	
NS1-ED (effector domain of NS1, 79-230) (from UniProt P03496 79-230) (domain or fragment)		binds
